Test results published in PubChem BioAssay AID493014 (National Center for Advancing Translational Sciences (NCATS), 2011).
Screen size: about 340,000 compounds; about 170 (0.05%) were called active. The shares of active, inactive and inconclusive entries below differ from those in the screen. The call rests on the fitted dose curve; in most records, active means well fitted inhibition curve with a large enough effect in the signal ratio, with a control signal flat (not every such curve was filed as active); inconclusive means small, poorly fitted or top-dose-only effect, or effect the other way, or a change in a side signal; inactive means flat fitted curve, though single readings scatter; the % refers to the signal ratio. Where the call is inconclusive, the potency comes from a doubtful curve fit.

test: qHTS Assay to Find Inhibitors of Chronic Active B-Cell Receptor Signaling; conditions: ABC-DLBCL IkBa-CBG/CBR reporter, luminescence ratio (green luciferase fused to IkBa over red control in TMD8 lymphoma cells), 4 h; activity change, negative = inhibition: at 46.1 µM (top of the series) unless noted;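 on activity change, negative = inhibition: plate controls were basal doxycycline-induced cells for no effect and cells given 10 µM MG132 for full effect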
In short: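 Cell line TMD8 (human ABC DLBCL), stably expressing tet-inducible CBG68-IkBa fusion and CBR; IMDM/0.5% FBS; cpd up to 46 uM; dox induction, 4 h, 37C/5% CO2; dual luminescence; green/red ratio; MG132 control.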
Potency means the concentration at half of the fitted maximal effect.

Structure (SMILES)	Potency	activity change, negative = inhibition
CCC1CCCCN1CCCNC(=O)c1ccc(/C=C2/Sc3ccccc3NC2=O)cc1 (stereo not given)	inconclusive: 15.8 µM [falling, partial curve]	–
N#Cc1ccccc1OCC(=O)N(C1CCCCC1)C1CCS(=O)(=O)C1 (stereo not given)	inconclusive: 20.6 µM [falling, partial curve]	–
NC(=O)C1CCN(c2oc(-c3ccccc3F)nc2S(=O)(=O)c2ccc(Cl)cc2)CC1	–	inconclusive: 13.9%
CN1C(=O)/C(=C/c2ccc(OCc3ccccc3F)cc2)NC1=S	–	inconclusive: 9.18%
Nc1nc(OCC(F)(F)F)cc(Oc2ccccc2F)n1	–	inconclusive: -0.111%
Cc1noc(C)c1S(=O)(=O)N1CCN(C(c2ccccc2)c2ccc(Cl)cc2)CC1 (stereo not given)	–	inactive: -1.15%
Cc1ccccc1CSCC(=O)NC1CCCC1	–	inactive: -1.76%
COc1cc2nc(CC(C)C)n(NC(=O)c3ccccc3Br)c(=O)c2cc1OC	–	inconclusive: 8.56%
O=C(CSc1nnc(-c2ccco2)o1)Nc1ccccc1Cl	–	inconclusive: -18.5%
CN1C(=O)C2(c3ccccc31)N(C)CC(c1ccccn1)C21SC(=S)N(Cc2ccco2)C1=O (stereo not given)	–	inconclusive: -0.107%
Cn1cc(CN2CCCC(CO)(Cc3ccccc3)C2)cn1 (stereo not given)	–	inconclusive: 0.698%
CCN(CC)CCNC(=S)Nc1ccc2nc(N3CCCC3)cc(C)c2c1	inconclusive: 8.91 µM [falling, partial curve, poor fit]	–
S=C(NCCc1ccc(Cl)cc1)NC1CCCC1	inconclusive: 20 µM [falling, single point]	–
COC(=O)C1CCN(c2ccc([N+](=O)[O-])cc2[N+](=O)[O-])CC1	–	inconclusive: 9.54%
Cc1nc2ncnn2c(C)c1CCC(=O)NCCc1ccccc1	–	inconclusive: 6.6%
COc1ccccc1C(N)=S	–	inactive: -2.57%
CCNc1nc(NCC)n2c(SCC(=O)Nc3ccc(F)cc3)nnc2n1	–	inactive: -0.0427%
Cc1c(NC(=O)Nc2ccc(Cl)c(Cl)c2)c(=O)n(-c2ccccc2)n1C	–	inconclusive: 3.47%
CCN(C(=O)CSc1nnc(Nc2ccccc2)s1)C1CCS(=O)(=O)C1 (stereo not given)	inconclusive: 7.08 µM [falling, partial curve, poor fit]	–
Cc1cc2nc3s/c(=C/c4ccc(-c5ccccc5C(=O)O)o4)c(=O)n3c2cc1C	–	inactive: -0.986%
COc1ccc(/C=N/NC(=O)CC(=O)NCc2cccnc2)c(OC)c1	inconclusive: 20.6 µM [falling, partial curve]	–
O=C(CCS(=O)(=O)c1cccc2nsnc12)NCc1ccccc1Cl	inconclusive: 9.2 µM [falling, partial curve]	–
CC(C)Oc1ccc2c(=O)c(-c3ccccc3)coc2c1	–	inconclusive: 12%
CCCc1nn(C)c(C(N)=O)c1[N+](=O)[O-]	–	inconclusive: 8.5%
COc1ccc(NC(=O)Cn2c(=O)cc(C)c3c(C)nn(-c4cccc(Cl)c4C)c32)cc1OC	–	inconclusive: 25.5%
O=C(NC1CC(=O)N(c2ccc3c(c2)OCCO3)C1)c1c(F)cccc1Cl (stereo not given)	–	inactive: -27.6%
c1ccc(CCC2CCCCN2Cc2nc(-c3ccc4c(c3)OCO4)no2)nc1 (stereo not given)	inconclusive: 35.5 µM [falling, partial curve, poor fit]	–

Structure (SMILES)	Potency	activity change, negative = inhibition
O=C(COc1ccc2ccccc2c1)Nc1nnc(-c2ccco2)s1	–	inconclusive: 4.45%
O=C(NN1C(=O)/C(=C/c2ccc(O)cc2)SC1=S)c1cccc(O)c1	–	inactive: 1.9%
N#Cc1c(N)[nH]c(=S)c(C#N)c1-c1ccccc1	–	inactive: -3.4%
CC1CCc2sc(C(=O)NC3CCCCC3)cc2C1 (stereo not given)	inconclusive: 7.31 µM [falling, partial curve, poor fit]	–
COC(=O)c1ccc(NC(=O)c2ccc(OC(C)=O)c(OC)c2)cc1	–	inconclusive: -21.7%
CCn1cc(C(=O)NCc2ccco2)c(=O)c2cc(F)c(N3CCN(C(=O)c4ccco4)CC3)cc21	–	inactive: -4.25%
O=S(=O)(CCSc1nc2ccccc2s1)c1nc2ccccc2s1	inconclusive: 32.6 µM [rising, single point]	–
O=C1c2ccccc2C(=O)N1CSc1nnnn1-c1ccccc1	–	inconclusive: 13.3%
COC(=O)CSc1nnc(-c2ccc(S(=O)(=O)N3CCCC3)cc2)n1C	inconclusive: 0.00461 µM [falling, full curve, poor fit]	–
CC(=O)c1sc(NC(=O)c2ccco2)nc1-c1ccccc1	–	inconclusive: 16.5%
CC(C)CN1CCN(CC#Cc2ccccc2)CC1CCO (stereo not given)	–	inconclusive: 5.13%
O=C(Nc1nnc(C(F)(F)F)s1)c1cccnc1	inconclusive: 25.9 µM [rising, single point]	–
Cc1ccc(S(=O)(=O)N2CCC(C(=O)OCC(=O)N(Cc3ccccc3)C(C)(C)C)CC2)cc1C	–	inconclusive: 20.1%
COc1cccc(NC(=O)c2sc3nc4n(c(=O)c3c2C)CCC4)c1	–	inconclusive: -4.85%
Cc1cc2cc3c(C)cc(=O)oc3c(C)c2o1	–	inactive: -0.655%
CCCCOC(=O)CSc1nc2c(c(=O)[nH]c(=O)n2C)n1C/C=C(\C)Cl	–	inconclusive: 4.38%
CC(C)CC1(C)NC(=O)N(CC(=O)Nc2ccc3c(c2)CCC3)C1=O (stereo not given)	–	inactive: -18.3%
COc1cc(/C=N/NC(=O)c2cccc([N+](=O)[O-])c2)cc(OC)c1O	inconclusive: 14.1 µM [falling, partial curve, poor fit]	–
O=C(C[n+]1cccc(O)c1)NCc1ccc(Cl)cc1	–	inactive: 1.38%
COc1ccc(-c2nn(-c3ccccc3)cc2/C=C/C(=O)NCCCn2ccnc2)cc1OC	inconclusive: 3.55 µM [falling, full curve, poor fit]	–
COc1cc(/C=C2/SC(=S)N(Cc3ccccc3)C2=O)cc(OC)c1O	–	inconclusive: 5.96%
COC(=O)c1ccc(COC(=O)c2ccc(CO)cc2)o1	–	inconclusive: 1.02%
COc1ccc(NC(=O)COc2ccccc2)c(OC)c1	inconclusive: 13 µM [falling, single point]	–
Cc1ccc([C@@H]2CC=C(C(=O)O)[C@H](c3ccc(F)cc3)N2S(=O)(=O)c2ccc(C)cc2)cc1	–	inactive: 3.67%
COc1ccc(OC)c(NC(=O)NCCc2cccc(Cl)c2)c1	–	inconclusive: 8.65%
COCc1cc(=O)n2[nH]c(-c3ccco3)cc2n1	inconclusive: 22.4 µM [falling, single point]	–
c1ccc2oc(NC3=NCN(CC4CCCO4)CN3)nc2c1 (stereo not given)	–	inconclusive: 12.2%

Looked up above.
activity change, negative = inhibition with Cc1ccc([C@@H]2CC=C(C(=O)O)[C@H](c3ccc(F)cc3)N2S(=O)(=O)c2ccc(C)cc2)cc1 reads inactive: 3.67%
Potency with O=C(Nc1nnc(C(F)(F)F)s1)c1cccnc1 reads inconclusive: 25.9 µM [rising, single point]
activity change, negative = inhibition with O=C(COc1ccc2ccccc2c1)Nc1nnc(-c2ccco2)s1 reads inconclusive: 4.45%
activity change, negative = inhibition with CCCCOC(=O)CSc1nc2c(c(=O)[nH]c(=O)n2C)n1C/C=C(\C)Cl reads inconclusive: 4.38%
activity change, negative = inhibition with COC(=O)c1ccc(COC(=O)c2ccc(CO)cc2)o1 reads inconclusive: 1.02%
activity change, negative = inhibition with Cc1cc2cc3c(C)cc(=O)oc3c(C)c2o1 reads inactive: -0.655%

Next part.

Structure (SMILES)	Potency	activity change, negative = inhibition
Cc1nc2c(C(=O)O)cnn2c(C)c1Cc1ccccc1	–	inactive: -0.194%
COc1cc(F)c(C2=CC(=O)C[C@H](c3ccc4c(c3)OCO4)C2)cc1F	–	inactive: 0.339%
CSc1ccc(Cl)c(C(=O)Nc2ccc(Cl)cn2)c1	inconclusive: 3.98 µM [falling, partial curve, poor fit]	–
COCCNC(=O)c1ccc(Cn2c(SCC(=O)NCC3CCCO3)nc3ccc(Br)cc3c2=O)cc1 (stereo not given)	–	inconclusive: 0.734%
COc1ccc(S(=O)(=O)O/N=C2\CCCc3ccccc32)cc1	inconclusive: 6.51 µM [falling, single point]	–
O=C(C[n+]1cc(-c2ccccc2)n2c1CCC2)OCc1ccccc1	–	inconclusive: 7.49%
O=Cc1cccc(OC(=O)/C=C/c2ccco2)c1	–	inconclusive: 11.4%
COc1ccc(C(=O)Cn2ccsc2=NC(C)=O)cc1	–	inconclusive: 7.16%
CC[C@@]1(C(=O)OC)N[C@H](CN(C)C(=O)Nc2ccc(C)cc2)[C@@H]2C(=O)N(Cc3ccccc3)C(=O)[C@@H]21	–	inactive: 3.35%
Clc1ccc(C[n+]2cc(-c3ccccc3)n3c2CCC3)cc1	–	inconclusive: -21.6%
O=C(O)COc1ccccc1/C=N/NC(=O)c1ccc2c(c1)OCCO2	inconclusive: 11.2 µM [falling, partial curve]	–
CCOC(=O)c1c(C)[nH]c(C(=O)COC(=O)c2cc(C)oc2C)c1C	–	inconclusive: -1.48%
CCOC(=O)N1CCN(Cc2c(F)cccc2F)CC1	–	inconclusive: -11.2%
O=C(NN=C(Cc1ccccc1)Cc1ccccc1)c1ccccc1F	inconclusive: 35.5 µM [rising, single point]	–
S=C(Nc1ccccc1)c1nc2ccccc2s1	inconclusive: 13 µM [falling, partial curve, poor fit]	–
Cc1nc(C)c2c(=O)cc(-c3ccccc3)[nH]c2n1	inconclusive: 0.731 µM [rising, partial curve, poor fit]	–
COCCn1c(SCCN2CCOCC2)nc2c1c(=O)[nH]c(=O)n2C	–	inactive: 7.85%
COc1ccc(NC(=O)C(c2cc3c(cc2[N+](=O)[O-])OCO3)N2CCN(C=O)CC2)cc1 (stereo not given)	–	inconclusive: 1.1%
O=C(O)CSCc1cnn(-c2ccccc2)c1-n1cccc1	–	inconclusive: 7.77%
CCN(CC(=O)NCc1cccs1)C(=O)CCC(=O)c1ccc(F)cc1	–	inactive: 0.84%
COC(=O)C(Cc1c[nH]c2ccccc12)NC(C)=O (stereo not given)	–	inconclusive: 15.8%
COc1cc2cc(C(c3nnnn3C(C)(C)C)N3CCc4ccccc4C3)c(=O)[nH]c2cc1OC (stereo not given)	inconclusive: 29.1 µM [falling, single point]	–
CCn1c2ccc(C)cc2c2nc3cc(C(=O)O)ccc3nc21	inconclusive: 23.1 µM [rising, partial curve, poor fit]	–
Oc1ccc(-c2cn3cc(C(F)(F)F)ccc3n2)cc1	inconclusive: 29.1 µM [falling, single point]	–
O=C(CSc1nc2ccccc2o1)N1CCOCC1	–	inconclusive: 4.19%
COc1ccc(-c2cn[nH]c2-c2ccc(OCc3ccc([N+](=O)[O-])cc3)cc2O)cc1OC	–	inconclusive: 3.36%
